Measurements reported in PubChem BioAssay AID1159578 (Peter MacCallum Cancer Centre, 2015).
Here is one part, drawn at random, of about 18,000 reagents tested. In the full data, about 1,030 (5.7%) were called active. 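Inactive calls also include pools with fewer than 3300 nuclei, whose migration was not assessed.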 Raw values vary from plate to plate and are shown uncorrected. Reagents against one gene are numbered here. Further read-outs or replicates are left out here. No sequences are given here.

Assay: 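Knock-downs that alter how fast lymphatic endothelial cells migrate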 (primary screen)
Cell system: human lymphatic endothelial cells
Reagents: siRNA pool against human genes, 40 nM
Duration: 48 h after transfection
Measured: 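High-content imaging of dye-stained cells in a scratch assay measures filled wound area and nuclei per well; duplicate means given as ratio to mock and robust z-score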
Reading the numbers: migration robust z-score: higher = faster migration into the scratch; nuclei per well: higher = more cells in the well
Call rule: 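Migration changed when robust z exceeds 2 or falls below -2 and mean nuclei number is at least 3300; otherwise not called changed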
Calls: active = migration changed; inactive = no migration change, or too few cells

GCLC: migration robust z-score = 0.1; migration class with cell-count check = migration z between -2 and 2; enough cells; nuclei per well, duplicate mean = 7237; outcome = inactive
HBE1: migration robust z-score = -3.17; migration class with cell-count check = migration z below -2; enough cells; nuclei per well, duplicate mean = 4404; outcome = active
STRBP: migration robust z-score = 0.11; migration class with cell-count check = migration z between -2 and 2; enough cells; nuclei per well, duplicate mean = 6286; outcome = inactive
PIP4P2: migration robust z-score = -0.1; migration class with cell-count check = migration z between -2 and 2; enough cells; nuclei per well, duplicate mean = 6552; outcome = inactive
TSPO2: migration robust z-score = -0.48; migration class with cell-count check = migration z between -2 and 2; enough cells; nuclei per well, duplicate mean = 5633; outcome = inactive
POLA2: migration robust z-score = 1.04; migration class with cell-count check = migration z between -2 and 2; enough cells; nuclei per well, duplicate mean = 4598; outcome = inactive
MRPL39: migration robust z-score = 0.05; migration class with cell-count check = migration z between -2 and 2; enough cells; nuclei per well, duplicate mean = 6249; outcome = inactive
DNHD1 #1: migration robust z-score = 0.34; migration class with cell-count check = migration z between -2 and 2; enough cells; nuclei per well, duplicate mean = 5977; outcome = inactive
DNHD1 #2: migration robust z-score = -1.72; migration class with cell-count check = migration z between -2 and 2; enough cells; nuclei per well, duplicate mean = 4535; outcome = inactive
NUP62: migration robust z-score = -2.05; migration class with cell-count check = under 3300 nuclei; migration not judged; nuclei per well, duplicate mean = 2724; outcome = inactive
ALLC: migration robust z-score = 0.5; migration class with cell-count check = migration z between -2 and 2; enough cells; nuclei per well, duplicate mean = 6086; outcome = inactive
SMIM3: migration robust z-score = -0.03; migration class with cell-count check = migration z between -2 and 2; enough cells; nuclei per well, duplicate mean = 5100; outcome = inactive
CHGA: migration robust z-score = 0.96; migration class with cell-count check = migration z between -2 and 2; enough cells; nuclei per well, duplicate mean = 6244; outcome = inactive
HAUS4: migration robust z-score = 1.04; migration class with cell-count check = migration z between -2 and 2; enough cells; nuclei per well, duplicate mean = 5959; outcome = inactive
TWIST2: migration robust z-score = 0.83; migration class with cell-count check = migration z between -2 and 2; enough cells; nuclei per well, duplicate mean = 5445; outcome = inactive
CDSN: migration robust z-score = -0.08; migration class with cell-count check = migration z between -2 and 2; enough cells; nuclei per well, duplicate mean = 5040; outcome = inactive
OLFML1: migration robust z-score = 0.06; migration class with cell-count check = migration z between -2 and 2; enough cells; nuclei per well, duplicate mean = 6210; outcome = inactive
SERPINA7: migration robust z-score = 0.55; migration class with cell-count check = migration z between -2 and 2; enough cells; nuclei per well, duplicate mean = 6012; outcome = inactive
IFI27L2: migration robust z-score = -1.69; migration class with cell-count check = migration z between -2 and 2; enough cells; nuclei per well, duplicate mean = 3818; outcome = inactive
HACD4: migration robust z-score = -0.95; migration class with cell-count check = migration z between -2 and 2; enough cells; nuclei per well, duplicate mean = 6614; outcome = inactive
ITPR2: migration robust z-score = -0.52; migration class with cell-count check = migration z between -2 and 2; enough cells; nuclei per well, duplicate mean = 5218; outcome = inactive

2 neighbouring records already listed, quoted:
SMIM3: migration robust z-score = -0.03; migration class with cell-count check = migration z between -2 and 2; enough cells; nuclei per well, duplicate mean = 5100; outcome = inactive
CHGA: migration robust z-score = 0.96; migration class with cell-count check = migration z between -2 and 2; enough cells; nuclei per well, duplicate mean = 6244; outcome = inactive
